The series is described as follows: general procedure: Fmoc solid-phase peptide synthesis; Rink amide MBHA resin; HATU/DIEA. The settings on record: whole synthesis; for final HPLC purity: RP-HPLC (C4 column) and ESI-MS.

Some peptides are written in HELM: one residue between dots, names in brackets for other building blocks, links after the first $.

As for “PEPTIDE1{[ac].T.S.L.I.A.G.P.K.A.Q.V.E.A.I.Q.K.Y.I.G.A.E.L.K.K.L.I.P.N.A.S.L.I.E.N.C.T.K.A.E.L.S.K.K.K.K.[am]}$$$$V2.0”, the isolated yield is 62% and the “final HPLC purity” value came out at 99%.

For “PEPTIDE1{[ac].T.S.L.I.A.G.P.K.A.Q.V.E.A.I.Q.K.Y.I.G.A.E.L.K.K.L.I.P.N.A.S.L.I.E.N.C.T.K.A.E.L.S.K.K.K.K.[am]}|PEPTIDE2{[ac].L.L.L.L.L.L.L.L.L.L}$PEPTIDE1,PEPTIDE2,24:R3-11:R2$$$V2.0”, the isolated yield stood at 50% and the “final HPLC purity” value came out at 99%.
